No constants are given. Whether binding was seen depends on the method and setting. Binding seen in cells or lysates may run through a third protein. A result given as binding can be weak or reduced; the word gives no strength.
Target: CHN-1::FLAG (C. elegans)
Experiment: co-IP; lysate of young adult worms expressing CHN-1::FLAG, anti-FLAG magnetic beads, 4°C 2 h; N2 lysate as negative control; blots with anti-AHCY-1 and anti-FLAG

B1: AHCY-1 (enzyme, UniProt P27604 1-437)
chain: MAQSKPAYKVADIKLADFGRKEIILAENEMPGLMAMRSKYGPSQPLKGARIAGCLHMTIQTAVLIETLTALGAEVQWSSCNIFSTQDHAAAAIAQTGVPVYAWKGETDEEYEWCIEQTIVFKDGQPLNMILDDGGDLTNLVHAKYPQYLAGIRGLSEETTTGVHNLAKMLAKGDLKVPAINVNDSVTKSKFDNLYGIRESLPDGIKRATDVMLAGKVAVVAGYGDVGKGSAASLKAFGSRVIVTEIDPINALQAAMEGYEVTTLEEAAPKANIIVTTTGCKDIVTGKHFELLPNDAIVCNVGHFDCEIDVKWLNTNATKKDTIKPQVDRYTLKNGRHVILLAEGRLVNLGCATGHPSFVMSNSFTNQVLAQVELWTKFGTPQEYKLGLYVLPKTLDEEVAYLHLAQLGVKLTKLSDEQASYLGVPVAGPYKPDHYRY
  binding: binds

From publication PMC9340540
